From article PMC4758637
Results are given in words; binding and its absence hold for the method and conditions named. Binding seen in cells or lysates may run through a third protein. Some binding calls cover weakened binding; strength is not graded here.

Amino acid sequences for entries named in this document (tags omitted). A change or cut given only in a name is not applied to a line headed by its entry. Residues count along the entry.
UniProt P20701: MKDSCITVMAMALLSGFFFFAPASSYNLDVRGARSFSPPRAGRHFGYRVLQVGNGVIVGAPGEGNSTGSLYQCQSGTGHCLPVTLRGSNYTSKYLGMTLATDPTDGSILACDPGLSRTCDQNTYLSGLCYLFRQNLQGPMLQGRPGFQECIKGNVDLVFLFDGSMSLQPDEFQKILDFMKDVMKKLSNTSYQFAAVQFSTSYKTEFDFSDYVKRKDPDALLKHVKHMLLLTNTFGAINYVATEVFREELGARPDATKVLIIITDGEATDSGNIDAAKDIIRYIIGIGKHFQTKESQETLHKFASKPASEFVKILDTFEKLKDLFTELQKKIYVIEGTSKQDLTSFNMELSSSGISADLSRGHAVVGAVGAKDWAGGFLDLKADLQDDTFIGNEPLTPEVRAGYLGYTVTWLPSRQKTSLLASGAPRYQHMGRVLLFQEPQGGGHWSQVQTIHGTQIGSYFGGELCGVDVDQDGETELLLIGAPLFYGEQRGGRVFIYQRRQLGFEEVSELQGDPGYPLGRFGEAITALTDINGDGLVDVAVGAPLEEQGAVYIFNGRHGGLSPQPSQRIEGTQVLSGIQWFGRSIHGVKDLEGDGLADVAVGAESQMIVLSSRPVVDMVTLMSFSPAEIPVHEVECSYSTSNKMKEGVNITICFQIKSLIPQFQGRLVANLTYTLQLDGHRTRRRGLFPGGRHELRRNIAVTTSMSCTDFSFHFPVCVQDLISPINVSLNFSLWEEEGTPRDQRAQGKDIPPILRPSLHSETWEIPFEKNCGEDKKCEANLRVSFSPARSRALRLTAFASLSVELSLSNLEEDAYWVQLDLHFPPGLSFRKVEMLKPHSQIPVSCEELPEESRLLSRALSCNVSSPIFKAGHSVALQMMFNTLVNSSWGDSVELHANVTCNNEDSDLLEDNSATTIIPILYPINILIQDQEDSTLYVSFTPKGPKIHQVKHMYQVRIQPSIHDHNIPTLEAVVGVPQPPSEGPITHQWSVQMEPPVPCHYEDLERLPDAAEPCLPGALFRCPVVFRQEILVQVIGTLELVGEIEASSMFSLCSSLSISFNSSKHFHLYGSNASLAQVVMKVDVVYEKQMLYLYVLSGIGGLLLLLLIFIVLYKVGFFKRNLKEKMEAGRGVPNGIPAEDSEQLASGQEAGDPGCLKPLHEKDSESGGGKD
UniProt P05107: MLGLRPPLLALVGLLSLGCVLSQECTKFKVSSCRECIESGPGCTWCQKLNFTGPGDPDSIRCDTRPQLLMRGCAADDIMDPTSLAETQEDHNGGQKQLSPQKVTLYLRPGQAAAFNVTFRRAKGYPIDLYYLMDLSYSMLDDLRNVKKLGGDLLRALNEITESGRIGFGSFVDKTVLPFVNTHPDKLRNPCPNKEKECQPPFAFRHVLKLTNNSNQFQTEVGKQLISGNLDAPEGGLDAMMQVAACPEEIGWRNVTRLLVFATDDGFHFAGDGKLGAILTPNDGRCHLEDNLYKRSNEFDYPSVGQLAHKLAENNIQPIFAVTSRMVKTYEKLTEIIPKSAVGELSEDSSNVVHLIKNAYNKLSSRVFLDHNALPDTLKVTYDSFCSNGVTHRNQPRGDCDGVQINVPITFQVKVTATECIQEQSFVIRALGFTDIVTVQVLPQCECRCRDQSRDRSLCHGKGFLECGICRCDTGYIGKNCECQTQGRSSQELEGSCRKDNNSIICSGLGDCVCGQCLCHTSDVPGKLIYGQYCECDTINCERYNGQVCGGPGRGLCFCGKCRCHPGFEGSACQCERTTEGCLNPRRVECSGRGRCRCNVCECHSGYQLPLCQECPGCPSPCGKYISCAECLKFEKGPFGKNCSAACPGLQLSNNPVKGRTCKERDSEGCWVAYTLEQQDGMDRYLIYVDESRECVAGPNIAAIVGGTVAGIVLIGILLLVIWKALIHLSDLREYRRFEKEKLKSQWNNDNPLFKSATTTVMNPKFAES
UniProt P07996, residues 19-1170: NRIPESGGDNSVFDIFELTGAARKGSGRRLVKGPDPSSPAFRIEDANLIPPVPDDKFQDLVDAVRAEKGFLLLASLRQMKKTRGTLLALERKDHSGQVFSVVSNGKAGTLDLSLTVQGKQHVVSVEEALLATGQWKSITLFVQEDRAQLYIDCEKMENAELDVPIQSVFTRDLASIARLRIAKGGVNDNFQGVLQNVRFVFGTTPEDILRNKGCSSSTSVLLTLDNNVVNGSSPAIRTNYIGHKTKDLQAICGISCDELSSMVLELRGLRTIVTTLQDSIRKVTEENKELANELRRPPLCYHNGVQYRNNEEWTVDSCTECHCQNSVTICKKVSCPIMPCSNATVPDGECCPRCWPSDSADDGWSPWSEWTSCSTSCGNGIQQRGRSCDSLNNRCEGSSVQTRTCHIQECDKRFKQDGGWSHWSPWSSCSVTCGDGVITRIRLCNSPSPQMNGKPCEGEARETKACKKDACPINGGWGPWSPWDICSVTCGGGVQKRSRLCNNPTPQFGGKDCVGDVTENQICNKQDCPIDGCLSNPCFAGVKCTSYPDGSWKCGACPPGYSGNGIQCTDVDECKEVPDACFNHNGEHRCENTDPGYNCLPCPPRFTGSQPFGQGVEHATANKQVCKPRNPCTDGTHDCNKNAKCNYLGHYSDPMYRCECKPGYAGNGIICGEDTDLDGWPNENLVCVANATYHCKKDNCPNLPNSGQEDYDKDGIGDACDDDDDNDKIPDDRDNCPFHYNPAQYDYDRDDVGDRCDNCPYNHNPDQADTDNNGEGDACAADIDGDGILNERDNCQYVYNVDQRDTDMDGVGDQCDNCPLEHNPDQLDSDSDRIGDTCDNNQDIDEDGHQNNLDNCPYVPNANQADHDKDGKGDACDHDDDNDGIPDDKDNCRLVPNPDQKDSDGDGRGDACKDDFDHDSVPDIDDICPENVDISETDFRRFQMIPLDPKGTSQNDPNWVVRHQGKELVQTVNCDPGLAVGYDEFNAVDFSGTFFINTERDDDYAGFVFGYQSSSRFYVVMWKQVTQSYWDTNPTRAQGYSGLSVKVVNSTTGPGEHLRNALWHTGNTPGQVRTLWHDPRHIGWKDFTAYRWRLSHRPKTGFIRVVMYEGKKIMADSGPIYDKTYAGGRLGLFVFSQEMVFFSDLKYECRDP

Molecular target: Lymphocyte function-associated antigen 1 (human (endogenous in monocyte-derived DCs and monocytes)) (UniProt P20701+P05107)
Assay: co-IP; LFA-1 precipitated from the post nuclear supernatant of day 6 imDCs with SPV-L7 (anti-αL), mIgG1 coated beads as control IP; Western blot, non-reducing conditions; lysis buffer not told

binding: binds
Substance: thrombospondin-1 (from UniProt P07996 19-1170)
